Results on 1 molecule are retold here after patent publication US20050158322A1.

These are yes or no findings as the source states them, for the method shown.

Assay [1] deals with keyhole limpet haemocyanin (Sigma) (keyhole limpet). Kind of assay: condition: periplasm diluted 1:5, 1:10 and 1:20; antigen coated at 10 µg/mL; ELISA on coated polyvinyl plates, detection with Mab 9E10.
Another assay deals with lyzozyme. Described as above.

B1: monovalent scFv fragment (clone pJG1m-25), produced in E. coli (scFv, not shown: small tags and cut ends)
scFv: EVKLVESGGDLVKPGGSLKFSCAASGFPFNRYAMSWVRQTPEKRLEWVAFISSDGIAYYADSVKGRFTISRDNARNILYLQMSSLRSEDTAMYYCARVYYYGSSYFDYWGQGTTLTVSSEGKSSGSGSESKVDDIVMTQSPKFMSTSVGDRVSVTCKASQNAGTNVAWYQQKPGQSPKALIYSASSRNSGVPDRITGSGSGTDFTLTISNVQSEDLAEYFCQQYNSYPLVTFGAGTKLELK
As to B1, the binding result (in assay [1]; with lyzozyme) was “no binding” each time.
